Several values for one entry are separate records, joined by “and”; a condition that tells them apart may be missing. Equal values may be shown once.

One may read the Ki as a measure of affinity in units of concentration, obtained from inhibition or displacement.

The target in the test is T1, Alpha-2C adrenergic receptor (Rattus norvegicus, UniProt P22086).
T1 sequence (P22086 whole entry): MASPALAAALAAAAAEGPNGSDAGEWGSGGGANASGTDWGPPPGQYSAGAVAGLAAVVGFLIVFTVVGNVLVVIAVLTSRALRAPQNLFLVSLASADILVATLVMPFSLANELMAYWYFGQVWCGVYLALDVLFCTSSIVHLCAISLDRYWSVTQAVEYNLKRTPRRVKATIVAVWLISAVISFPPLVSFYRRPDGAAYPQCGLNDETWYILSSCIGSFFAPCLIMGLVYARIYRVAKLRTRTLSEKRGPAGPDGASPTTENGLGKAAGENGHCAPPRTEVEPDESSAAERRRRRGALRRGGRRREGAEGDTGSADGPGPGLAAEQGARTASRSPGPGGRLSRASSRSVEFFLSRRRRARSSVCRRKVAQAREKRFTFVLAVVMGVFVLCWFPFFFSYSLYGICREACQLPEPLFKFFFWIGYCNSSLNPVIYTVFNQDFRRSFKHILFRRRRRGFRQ

Turning to `CC(C)NC[C@H](O)COc1cccc2ccccc12` [Propanolol,(+/-)], the inhibition constant (Ki) was 1300 nM and 2790 nM.

The values above are taken from BindingDB's records for PubMed 2885406 (University of California, 1987).
